79 molecules from publication PMC12040169 (PLOS Biology, 2025) can be followed below.

Molecules are shown by their SMILES. The list shows a part of the results.

The test system of this assay is T1, CTL2-GFP (C. trachomatis L2/434/Bu, GFP-expressing).
T1 construct: L2/434/Bu, GFP-expressing
On the set-up: species or system HeLa; Intracellular C. trachomatis growth in HeLa cells, bulk GFP fluorescence relative to DMSO. The note with it: bulk GFP, single well; 28.5 h, 10 µM; inhibitor.
As to `CCNC(=O)O[C@@H]1CO[C@H]2[C@@H]1OC[C@@H]2NC(=O)Nc1ccc(C(C)=O)cc1` [CBK289473], the “% of control remaining” value worked out at 104.859%.

As to `CC(=O)N(C)c1ncc(Br)cc1C(=O)NCCc1ccccc1` [CBK076543], the “% of control remaining” value was determined as 121.868%.

Take `COC(=O)[C@H]1CCc2ccccc2N1C(=O)C1CCC1` [CBK285478]: the “% of control remaining” value was determined as 83.6837%.

Consider `CCC1CCCCN1C(=O)Cn1cnc2c(Cl)cc(Cl)cc2c1=O` (stereo not shown) [CBK305833], for which the “% of control remaining” value stood at 110.212%.

Take `O=C(O)CCC(NC(=O)c1ccc(Cl)cc1)C(=O)O` (stereo not shown) [CBK263597]: the “% of control remaining” value is 127.437%.

Regarding `CC(Sc1nc(N(C)C)nc(N2CCOCC2)n1)C(=O)Nc1ccc(Cl)c(Cl)c1` (stereo not shown) [CBK269229], the “% of control remaining” value turned out to be 103.435%.

Regarding `CCOCCCNC(=O)C1CCN(c2cccc(F)c2C#N)CC1` [CBK306341], the “% of control remaining” value worked out at 73.8478%.

As to `COc1cc(OC)cc(C(=O)N2CCC3(CC2)CC(=O)c2c(OC)cc(OC)cc2O3)c1` [CBK164233], the “% of control remaining” value was determined as 100%.

`CC(NC(=O)CCCC(=O)c1cccs1)c1cccc2ccccc12` (stereo not shown) [CBK297748]: the “% of control remaining” value is listed as 106.674%.

In the case of `CC(=O)Nc1ccc(S(=O)(=O)Nc2ccc(-c3nc4cc(C(=O)c5ccccc5)ccc4[nH]3)cc2)cc1` [CBK267819], the “% of control remaining” value was 108.634%.

As to `Cc1cccc(OCCn2c(CCNC=O)nc3ccccc32)c1C` [CBK269539], the “% of control remaining” value is 102.064%.

Consider `Cc1ccccc1-n1nc(C)c(CN(C)CC2CCN(C)C2)c1C` (stereo not shown) [CBK283035], for which the “% of control remaining” value is given as 135.432%.

With `OCCC1CCCCN1c1nccnc1-c1ccsc1` (stereo not shown) [CBK037358], the “% of control remaining” value is recorded as 125.742%.

In the case of `Cc1cnc(CNC(=O)c2ccc3nc[nH]c3c2)cn1` [CBK153318], the “% of control remaining” value is given as 166.976%.

As to `Cc1cc(C(=O)NCc2ccccc2)n[nH]1` [CBK200198], the “% of control remaining” value is on record as 161.445%.

Turning to `NS(=O)(=O)c1ccc(CCNc2ncnc3c2c(-c2ccccc2)cn3-c2ccc(F)cc2)cc1` [CBK266478], the “% of control remaining” value turned out to be 84.2376%.

Regarding `CCNc1cncc(-c2ccc(N)cc2)n1` [CBK065658], the “% of control remaining” value is 122.026%.

With `O=C(C[C@@H]1CCNC[C@@H]1Cc1cc(-c2ccc(F)cc2)on1)Nc1ccccc1` [CBK288801], the “% of control remaining” value was 120.971%.

Regarding `Cc1cc(NC(=O)Cn2nc(C(F)(F)F)c(Cl)c2C)no1` [CBK018709], the “% of control remaining” value came out at 116.386%.

Take `CCCC1c2cccn2CCN1S(=O)(=O)c1ccc2[nH]c(=O)[nH]c(=O)c2c1` (stereo not shown) [CBK286388]: the “% of control remaining” value came to 105.587%.

Take `Cc1cc(C(F)(F)F)c2c(NC/C=C/c3ccco3)n[nH]c2n1` [CBK283651]: the “% of control remaining” value was 95.3874%.

For the molecule `O=C1CN(S(=O)(=O)c2ccc(F)cc2Cl)CCN1` [CBK051081], the “% of control remaining” value was 131.011%.

Take `CN(C)CCN(C)Cc1ccccc1O` [CBK261875]: the “% of control remaining” value is reported as 100%.

For the molecule `Cc1cc(Cl)ccc1OCC(=O)Nc1nnc[nH]1` [CBK287940], the “% of control remaining” value is recorded as 148.134%.

On to `CC1CCN(C(=O)Cn2ncn3c(cc4ccsc43)c2=O)CC1` [CBK284190], for which the “% of control remaining” value is recorded as 113.687%.

`CCN1CCN(C(=O)CN(CCc2ccccc2)S(C)(=O)=O)CC1` [CBK266666]: the “% of control remaining” value turned out to be 104.388%.

For the molecule `N#Cc1cccc(C(=O)NCC2(N3CCOCC3)CCSC2)c1` (stereo not shown) [CBK306344], the “% of control remaining” value came to 110.71%.

For `COc1ccccc1-c1nnc(NC(=O)Cc2cccs2)s1` [CBK287361], the “% of control remaining” value is reported as 140.087%.

In the case of `O=C(O)CC(NC=C1C(=O)CCCC1=O)C(=O)O` (stereo not shown) [CBK261997], the “% of control remaining” value came to 100%.

For `COCCc1nc(Cc2ccc(OC)cc2)nn1CC1COCCO1` (stereo not shown) [CBK307521], the “% of control remaining” value turned out to be 117.91%.

Regarding `Cc1ccccc1CN(C)C(C)C(=O)Nc1ccc(S(N)(=O)=O)cc1` (stereo not shown) [CBK304589], the “% of control remaining” value is listed as 119.065%.

On to `O=C(c1ccncc1)c1ccc(N2CCN(C3CC(=O)N(Cc4cccs4)C3=O)CC2)cc1` (stereo not shown) [CBK269074], for which the “% of control remaining” value turned out to be 123.051%.

As to `COc1ccccc1OCC(=O)N1CCNC1=O` [CBK288201], the “% of control remaining” value is given as 158.675%.

Take `COc1ccccc1C/C(N)=N/OC(=O)COc1ccc2ccccc2c1` [CBK263730]: the “% of control remaining” value turned out to be 124.333%.

For the molecule `CC[C@H]1CN(C(=O)Nc2cccc(C(F)(F)F)c2)CC[C@H]1CC(=O)O` [CBK288776], the “% of control remaining” value worked out at 130.728%.

Turning to `Brc1cccc(-c2cn3ccnc3c(NC3CCOCC3)n2)c1` [CBK066291], the “% of control remaining” value was 115.063%.

In the case of `O=c1[nH]c(=O)n([C@@H]2O[C@H](CO)[C@H](O)C2O)cc1I` (stereo partly shown) [CBK201304], the “% of control remaining” value is recorded as 172.706%.

Turning to `O=S(=O)(c1cc(Cl)sc1Cl)N1CCN(Cc2ccc3c(c2)OCO3)CC1` [CBK074743], the “% of control remaining” value turned out to be 129.098%.

As to `O=C1NC(=O)C(CC(=O)N2CCC(Cn3cncn3)(C3CCCCC3)CC2)N1` (stereo not shown) [CBK136808], the “% of control remaining” value is reported as 99.4125%.

For the molecule `Cc1cnc(Cl)c2ncn([C@H]3C[C@@H](O)[C@@H](CO)O3)c12` [CBK201234], the “% of control remaining” value is 163.592%.

Regarding `O=C(COc1ccccc1[N+](=O)[O-])Nc1cnc(-c2cccc(C(F)(F)F)c2)c(-c2ccco2)n1` [CBK036899], the “% of control remaining” value was found to be 143.953%.

Regarding `Cc1cc(S(=O)(=O)N2CCN(c3ccc(Cl)cc3)CC2)c(C)cc1Cl` [CBK044965], the “% of control remaining” value was determined as 81.2183%.

With `CC(CCc1ccccc1)NC1CCCc2c1[nH]c1ccc([N+](=O)[O-])cc21` (stereo not shown) [CBK262875], the “% of control remaining” value is listed as 36.4876%.

Turning to `CCCCSc1nc(N)cc(N2CCOCC(CN(C)C)C2)n1` (stereo not shown) [CBK306659], the “% of control remaining” value worked out at 120.446%.

As for `COc1cc(-c2nccnc2NCc2ccccn2)cc(OC)c1OC` [CBK036936], the “% of control remaining” value was 130.359%.

With `N#CC(c1ccc(O)cc1)N1CCCCC1` (stereo not shown) [CBK028556], the “% of control remaining” value is recorded as 140.408%.

With `COc1ccc2[nH]nc(CN3CCCC(c4cc(O)nc(C)n4)C3)c2c1` (stereo not shown) [CBK306703], the “% of control remaining” value is recorded as 95.3598%.

As for `Cc1cc(Cc2ccccc2Cl)cc(C2CCCN(CC(=O)N(C)C)C2)n1` (stereo not shown) [CBK286262], the “% of control remaining” value is 122.797%.

As to `CCc1nn2c(O)cc(C)nc2c1-c1cccs1` [CBK283860], the “% of control remaining” value amounted to 122.565%.

For `O=C(O)CCC(=O)N1CCN(Cc2ccc(Cl)cc2)CC1` [CBK286852], the “% of control remaining” value is 92.1665%.

`NCCNc1ccc(C(=O)Nc2cccc(Cl)c2)cc1[N+](=O)[O-]` [CBK263953]: the “% of control remaining” value was 78.339%.

Turning to `COc1ccc(S(=O)(=O)N2CCC(C(=O)O)(c3ccccc3)CC2)cc1` [CBK267572], the “% of control remaining” value was found to be 118.259%.

Consider `CCN1C(=O)C2(CC(=O)N(Cc3ccc(OC)c(OC)c3)C2=O)c2cc(C)ccc21` (stereo not shown) [CBK075172], for which the “% of control remaining” value was found to be 113.359%.

For `Cc1nc(-c2ccccc2)sc1CNC(=O)CCc1c[nH]c2ccccc12` [CBK092373], the “% of control remaining” value worked out at 100%.

Turning to `Cc1ccc(C(=O)N2CCC(c3n[nH]c4ncccc34)CC2)s1` [CBK284911], the “% of control remaining” value came to 124.709%.

As to `Cc1ccccc1OCc1nnc(SCC(=O)NC2CCCCC2)n1C` [CBK265817], the “% of control remaining” value came to 100%.

Consider `O=C(Nc1nccs1)c1ccc2[nH]ccc2c1` [CBK161731], for which the “% of control remaining” value was 116.233%.

Consider `CCc1nc2c(OCCC3CCCCC3)cccn2c1N(C)C(=O)CC(C)C` [CBK147671], for which the “% of control remaining” value came to 111.684%.

Turning to `O=S(=O)(CCSc1nc2ccccc2s1)c1nc2ccccc2s1` [CBK026908], the “% of control remaining” value worked out at 93.3804%.

With `Nc1cccc(Sc2ccc(C(F)(F)F)cn2)c1` [CBK089606], the “% of control remaining” value stood at 93.7051%.

Turning to `COCCNCCOc1c(Cl)cc(C)cc1Br` [CBK265087G], the “% of control remaining” value amounted to 104.712%.

Regarding `O=C(C[C@@H]1O[C@H](CNCc2cccc(Cl)c2)[C@@H](O)[C@H]1O)N1CCCC1` [CBK288914], the “% of control remaining” value is 140.986%.

In the case of `COc1ccc([C@@]23CC[C@@H](NC(=O)Nc4ccc(Cl)cc4[N+](=O)[O-])C[C@@H]2N(C)CC3)cc1OC` [CBK036474T], the “% of control remaining” value is 102.994%.

`COc1cc(/C=N/NC(=O)c2cccc([N+](=O)[O-])c2)cc(OC)c1O` [CBK262172]: the “% of control remaining” value is reported as 114.586%.

In the case of `c1cncc(COc2ccnc(N3CCCN(Cc4ccc5c(c4)OCO5)CC3)n2)c1` [CBK084112], the “% of control remaining” value stood at 116.772%.

`COc1ccc(S(=O)(=O)Nc2ccccc2C(=O)Nc2ccc(F)cc2)cc1OC` [CBK045404]: the “% of control remaining” value amounted to 111.058%.

In the case of `CN1CCc2c(sc3ncn4nc(-c5ccncc5)nc4c23)C1` [CBK288540], the “% of control remaining” value is given as 124.766%.

Turning to `Cc1cc(N2C(=O)NS(=O)(=O)c3cccnc32)ccc1F` [CBK288461], the “% of control remaining” value worked out at 126.252%.

As for `Cc1ccc(C2(O)CCN(CCNC(=O)C3CCCCC3)CC2)cc1` [CBK283323], the “% of control remaining” value came to 112.922%.

With `O=C(O)C(Cc1c[nH]cn1)N1C(=O)C2C3C=CC(C3)C2C1=O` (stereo not shown) [CBK286705], the “% of control remaining” value stood at 109.535%.

On to `Cc1nnc(SCCCCSc2nnc(C)n2N)n1N` [CBK265686], for which the “% of control remaining” value is 131.368%.

Turning to `CCCN1CCC(NC(=O)c2cc(COc3cccc(F)c3)[nH]n2)CC1` [CBK306753], the “% of control remaining” value is given as 86.2805%.

Regarding `Cc1nc(COc2ccccc2)nc(O)c1Cl` [CBK057810], the “% of control remaining” value turned out to be 101.347%.

Turning to `Cc1ccc(S(=O)(=O)Nc2ccc(Nc3cc(-c4cc(C(F)(F)F)cc(C(F)(F)F)c4)ncn3)cc2)cc1` [CBK090968], the “% of control remaining” value came out at 170.733%.

On to `Cc1nc(C2CCN(Cc3ccccc3)C2)c2ccccn12` (stereo not shown) [CBK282111], for which the “% of control remaining” value was 156.396%.

As for `Cc1csc(N2CCN(C(=O)CCc3nc(C(C)C)no3)CC2)n1` [CBK305341], the “% of control remaining” value stood at 129.2%.

As for `Cn1c(=O)cc(Oc2ccc(F)cc2)c2ccccc21` [CBK281451], the “% of control remaining” value is 127.199%.

Take `Cc1cccc(CN(CC(C)(C)CN)C(=O)NC(C)c2cccc3ccccc23)n1` (stereo not shown) [CBK002423C]: the “% of control remaining” value is listed as 101.6%.

For `CCOCN(C(=O)Cn1c(C(C)O)nc2ccccc21)c1c(C)cccc1CC` (stereo not shown) [CBK297722], the “% of control remaining” value was found to be 133.44%.
